This is one part of the list. Most values lie at the level of the controls, where differences are scatter.
How the values were obtained:
ppGalNAc-T3 sensor = experiment: T3 sensor activation Q score (MG/GFP ratio z-score vs DMSO controls) (SD units); higher = more sensor activation (inhibition of ppGalNAc-T3 glycosylation); settings: HEK293 sensor cells; 10 µM; 6 h
Method: (§1)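 Cells were treated with compound at 10 uM for 6 h, then MG/GFP ratio was read by flow cytometry (10,000 cells per well, duplicate wells). Q = (R - R_neg)/SD_neg relative to DMSO vehicle controls; the signal rises when the glycosyltransferase is inhibited.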

ppGalNAc-T2 sensor = experiment: T2 sensor activation Q score (MG/GFP ratio z-score vs DMSO controls) (SD units); higher = more sensor activation (inhibition of ppGalNAc-T2 glycosylation); settings: HEK293 sensor cells; 10 µM; 6 h
Method: as §1

Structure (SMILES) | T3 sensor activation Q score (ppGalNAc-T3 sensor) | T2 sensor activation Q score (ppGalNAc-T2 sensor)
CC(C)c1ccc(CN(C)C2CCN(C)CC2)cc1 | 1.5 | -1.26
CCN(CC)C(=O)C1CCCN(Cc2cc(Br)ccc2OC)C1 (configuration not stated) | 0.215 | 1.52
CCOc1cc(CN2CCCCCC2)ccc1OC | 0.04 | 0.055
NC(=O)CS(=O)(=O)c1ccc(Cl)cc1 | -0.295 | -1.66
C=CCc1c(C)nc(SC)[nH]c1=O | -0.395 | 0.915
Cc1ccc(NCC(=O)c2ccc([N+](=O)[O-])cc2)cc1 | 0.705 | -0.155
Cc1nc2nc(-c3ccccc3)cc(-c3ccccc3)n2n1 | 1.25 | -0.43
Cc1ccc(CN2CCCN(C)CC2)s1 | -0.305 | 0.205
O=C(Nc1ccc(-c2ccccc2)cc1)C1CC1c1ccccc1 (configuration not stated) | -0.55 | 0.375
O=c1[nH]cnc2scc(-c3cccs3)c12 | 0.03 | -0.715
Cc1cccc(OCCCCN2CCCCC2)c1 | -0.445 | -0.39
CC1=CCC(C(=O)O)C(C(=O)O)C1 (configuration not stated) | 1.15 | -0.305
NNC(=O)c1cc(-c2ccccc2)n[nH]1 | 0.275 | -0.445
CN1CCN(S(=O)(=O)c2ccc(C(=O)O)cc2)CC1 | -0.25 | 0.555
COc1ccc(CN2CCc3ccccc3C2)c(OC)c1 | 0.465 | 1.06
c1ccc(N2CCN(Cc3ccco3)CC2)cc1 | -0.25 | -1.16
Cc1ccc(OCCCN2CCOCC2)cc1C | 0.29 | 0.64
O=C(NCCCCc1ccccc1)C12CC3CC(CC(C3)C1)C2 | 0.355 | -0.465
COc1ccc(C2C(=C(O)c3ccccc3)C(=O)C(=O)N2C)cc1 (configuration not stated) | 0.28 | 0.125
Cc1cc(C)cc(NS(=O)(=O)c2ccc(F)cc2)c1 | 0.635 | -0.825
CC(=O)Nc1cccc(C(=O)Nc2ccccc2Cl)c1 | -0.515 | -0.3
O=C(O)C1CCC(c2ccccc2)CC1 (configuration not stated) | -0.185 | 0.76
O=S(=O)(Nc1cccc(F)c1)c1ccc(-c2ccccc2)cc1 | 0.475 | 0.565
CC(O)Cn1c2ccccc2c2cc(Cl)ccc21 (configuration not stated) | -0.05 | -0.425
Cc1c(Cl)cccc1NS(=O)(=O)c1ccccc1 | -0.595 | -0.15
O=[N+]([O-])c1ccc(-n2ccc3ccccc32)cc1 | -0.495 | 0.52

Not a retest: entries from further up.
Structure (SMILES) | T3 sensor activation Q score (ppGalNAc-T3 sensor) | T2 sensor activation Q score (ppGalNAc-T2 sensor)
COc1ccc(CN2CCc3ccccc3C2)c(OC)c1 | 0.465 | 1.06
c1ccc(N2CCN(Cc3ccco3)CC2)cc1 | -0.25 | -1.16
